Measured values from the supplement of paper PMC12067093, “Discovery and optimisation of a covalent ligand for TRIM25 and its application to targeted protein ubiquitination” (Chemical Science, 2025).
This is one part of the list.

Amino acid sequences for entries named in this document (tags omitted). A change or cut given only in a name is not applied to a line headed by its entry.
UniProt P20645: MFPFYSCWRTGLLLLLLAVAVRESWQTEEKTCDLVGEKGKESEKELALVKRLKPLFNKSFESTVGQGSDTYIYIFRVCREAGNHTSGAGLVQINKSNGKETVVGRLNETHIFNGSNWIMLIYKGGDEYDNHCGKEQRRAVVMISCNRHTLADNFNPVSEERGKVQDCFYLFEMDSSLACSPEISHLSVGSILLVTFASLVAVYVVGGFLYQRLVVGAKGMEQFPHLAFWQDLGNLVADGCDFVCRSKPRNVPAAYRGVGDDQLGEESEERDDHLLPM
UniProt Q12851: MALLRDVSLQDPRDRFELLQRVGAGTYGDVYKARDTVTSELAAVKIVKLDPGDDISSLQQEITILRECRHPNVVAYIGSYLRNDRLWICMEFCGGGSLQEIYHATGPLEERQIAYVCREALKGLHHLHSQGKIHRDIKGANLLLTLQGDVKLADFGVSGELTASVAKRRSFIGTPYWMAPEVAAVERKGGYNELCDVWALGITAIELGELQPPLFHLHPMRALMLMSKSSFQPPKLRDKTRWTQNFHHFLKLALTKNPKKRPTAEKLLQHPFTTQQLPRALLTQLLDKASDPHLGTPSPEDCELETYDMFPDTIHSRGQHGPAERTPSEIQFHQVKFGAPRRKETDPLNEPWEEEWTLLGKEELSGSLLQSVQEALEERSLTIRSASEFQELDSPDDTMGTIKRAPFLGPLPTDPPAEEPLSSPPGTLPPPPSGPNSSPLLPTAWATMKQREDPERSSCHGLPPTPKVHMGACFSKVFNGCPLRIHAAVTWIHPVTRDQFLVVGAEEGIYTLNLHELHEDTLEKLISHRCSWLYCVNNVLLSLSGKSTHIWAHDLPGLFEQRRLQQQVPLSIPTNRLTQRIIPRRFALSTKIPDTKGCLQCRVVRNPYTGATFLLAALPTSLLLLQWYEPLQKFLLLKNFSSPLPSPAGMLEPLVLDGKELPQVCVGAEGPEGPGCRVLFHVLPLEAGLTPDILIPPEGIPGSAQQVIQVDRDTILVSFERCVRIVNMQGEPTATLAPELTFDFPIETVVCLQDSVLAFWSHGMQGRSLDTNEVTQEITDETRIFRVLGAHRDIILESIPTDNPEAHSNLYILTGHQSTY
UniProt Q86UD3: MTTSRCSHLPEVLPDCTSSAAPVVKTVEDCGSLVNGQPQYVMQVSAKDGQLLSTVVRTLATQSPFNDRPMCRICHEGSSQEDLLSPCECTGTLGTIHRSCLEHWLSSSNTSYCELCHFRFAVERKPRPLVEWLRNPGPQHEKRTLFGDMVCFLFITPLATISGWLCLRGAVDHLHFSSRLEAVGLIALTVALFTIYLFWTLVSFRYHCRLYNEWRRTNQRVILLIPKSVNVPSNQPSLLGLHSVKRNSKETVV
UniProt O60449: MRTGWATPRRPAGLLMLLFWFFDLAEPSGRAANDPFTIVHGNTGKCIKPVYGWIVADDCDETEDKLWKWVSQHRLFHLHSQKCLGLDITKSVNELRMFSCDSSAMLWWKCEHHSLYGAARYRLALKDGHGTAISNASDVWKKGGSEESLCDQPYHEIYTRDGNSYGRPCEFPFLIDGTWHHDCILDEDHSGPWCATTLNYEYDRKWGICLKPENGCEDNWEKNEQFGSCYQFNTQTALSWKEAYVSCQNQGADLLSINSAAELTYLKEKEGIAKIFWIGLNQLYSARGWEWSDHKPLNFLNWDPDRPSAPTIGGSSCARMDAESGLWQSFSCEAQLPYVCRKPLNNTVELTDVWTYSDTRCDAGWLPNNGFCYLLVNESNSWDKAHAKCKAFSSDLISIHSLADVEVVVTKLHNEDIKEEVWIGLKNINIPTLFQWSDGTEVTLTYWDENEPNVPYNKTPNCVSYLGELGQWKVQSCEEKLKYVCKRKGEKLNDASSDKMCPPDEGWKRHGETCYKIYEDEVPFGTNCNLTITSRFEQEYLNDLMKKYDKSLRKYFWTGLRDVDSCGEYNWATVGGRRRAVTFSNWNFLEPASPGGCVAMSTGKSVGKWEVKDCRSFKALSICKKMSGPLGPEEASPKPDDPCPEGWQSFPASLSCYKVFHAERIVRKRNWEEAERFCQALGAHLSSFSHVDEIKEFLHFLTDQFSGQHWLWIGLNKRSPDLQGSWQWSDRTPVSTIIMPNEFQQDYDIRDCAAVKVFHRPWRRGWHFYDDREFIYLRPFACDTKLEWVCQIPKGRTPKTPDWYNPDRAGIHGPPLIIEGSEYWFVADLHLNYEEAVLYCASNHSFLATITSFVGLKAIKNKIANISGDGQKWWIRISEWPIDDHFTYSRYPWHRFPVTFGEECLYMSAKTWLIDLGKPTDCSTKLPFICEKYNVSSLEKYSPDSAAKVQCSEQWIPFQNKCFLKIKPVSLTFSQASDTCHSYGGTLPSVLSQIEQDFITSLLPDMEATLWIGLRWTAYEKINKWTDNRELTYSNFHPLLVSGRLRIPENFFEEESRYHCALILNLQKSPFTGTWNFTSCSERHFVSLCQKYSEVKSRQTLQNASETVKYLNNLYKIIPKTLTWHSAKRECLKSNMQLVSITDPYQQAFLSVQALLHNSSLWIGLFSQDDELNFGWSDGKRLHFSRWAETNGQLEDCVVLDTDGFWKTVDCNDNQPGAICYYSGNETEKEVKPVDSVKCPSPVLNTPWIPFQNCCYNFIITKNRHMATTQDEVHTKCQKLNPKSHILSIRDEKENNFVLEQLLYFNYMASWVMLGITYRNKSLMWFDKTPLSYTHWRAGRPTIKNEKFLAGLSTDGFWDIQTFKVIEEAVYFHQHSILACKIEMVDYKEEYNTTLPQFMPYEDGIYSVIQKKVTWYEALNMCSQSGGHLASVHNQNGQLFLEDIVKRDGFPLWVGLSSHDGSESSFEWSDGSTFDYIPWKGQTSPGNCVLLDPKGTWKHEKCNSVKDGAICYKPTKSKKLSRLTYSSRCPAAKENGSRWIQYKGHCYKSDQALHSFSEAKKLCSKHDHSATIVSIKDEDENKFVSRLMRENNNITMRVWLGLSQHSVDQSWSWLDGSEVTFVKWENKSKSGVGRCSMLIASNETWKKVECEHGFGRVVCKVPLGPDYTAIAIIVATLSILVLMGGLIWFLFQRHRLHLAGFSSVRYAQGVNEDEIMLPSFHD
UniProt P27361, whole entry: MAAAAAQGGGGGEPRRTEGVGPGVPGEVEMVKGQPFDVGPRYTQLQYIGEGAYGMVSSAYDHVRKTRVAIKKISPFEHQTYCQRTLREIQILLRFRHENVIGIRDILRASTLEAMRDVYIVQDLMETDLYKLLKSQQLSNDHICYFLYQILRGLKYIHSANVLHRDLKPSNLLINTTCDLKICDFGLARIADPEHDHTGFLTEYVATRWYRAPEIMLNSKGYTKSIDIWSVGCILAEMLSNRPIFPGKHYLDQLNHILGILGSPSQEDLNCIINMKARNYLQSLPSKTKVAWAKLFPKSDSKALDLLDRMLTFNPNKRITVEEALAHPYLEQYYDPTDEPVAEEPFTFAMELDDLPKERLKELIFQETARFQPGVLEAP
UniProt Q7Z434: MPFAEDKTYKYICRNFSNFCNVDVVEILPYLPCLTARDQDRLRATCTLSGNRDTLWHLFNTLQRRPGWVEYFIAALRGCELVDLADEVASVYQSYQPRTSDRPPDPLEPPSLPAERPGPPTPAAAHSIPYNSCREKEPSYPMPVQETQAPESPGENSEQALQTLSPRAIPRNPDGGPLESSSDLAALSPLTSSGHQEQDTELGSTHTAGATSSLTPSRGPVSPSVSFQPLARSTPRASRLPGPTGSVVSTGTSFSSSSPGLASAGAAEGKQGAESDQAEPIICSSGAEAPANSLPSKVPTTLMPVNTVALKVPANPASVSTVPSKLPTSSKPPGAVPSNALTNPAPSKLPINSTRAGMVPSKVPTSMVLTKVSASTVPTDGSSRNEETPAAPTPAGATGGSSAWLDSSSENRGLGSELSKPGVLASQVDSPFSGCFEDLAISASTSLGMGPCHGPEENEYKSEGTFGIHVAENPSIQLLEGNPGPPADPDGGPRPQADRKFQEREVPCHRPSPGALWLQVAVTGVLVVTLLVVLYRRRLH
UniProt O00462: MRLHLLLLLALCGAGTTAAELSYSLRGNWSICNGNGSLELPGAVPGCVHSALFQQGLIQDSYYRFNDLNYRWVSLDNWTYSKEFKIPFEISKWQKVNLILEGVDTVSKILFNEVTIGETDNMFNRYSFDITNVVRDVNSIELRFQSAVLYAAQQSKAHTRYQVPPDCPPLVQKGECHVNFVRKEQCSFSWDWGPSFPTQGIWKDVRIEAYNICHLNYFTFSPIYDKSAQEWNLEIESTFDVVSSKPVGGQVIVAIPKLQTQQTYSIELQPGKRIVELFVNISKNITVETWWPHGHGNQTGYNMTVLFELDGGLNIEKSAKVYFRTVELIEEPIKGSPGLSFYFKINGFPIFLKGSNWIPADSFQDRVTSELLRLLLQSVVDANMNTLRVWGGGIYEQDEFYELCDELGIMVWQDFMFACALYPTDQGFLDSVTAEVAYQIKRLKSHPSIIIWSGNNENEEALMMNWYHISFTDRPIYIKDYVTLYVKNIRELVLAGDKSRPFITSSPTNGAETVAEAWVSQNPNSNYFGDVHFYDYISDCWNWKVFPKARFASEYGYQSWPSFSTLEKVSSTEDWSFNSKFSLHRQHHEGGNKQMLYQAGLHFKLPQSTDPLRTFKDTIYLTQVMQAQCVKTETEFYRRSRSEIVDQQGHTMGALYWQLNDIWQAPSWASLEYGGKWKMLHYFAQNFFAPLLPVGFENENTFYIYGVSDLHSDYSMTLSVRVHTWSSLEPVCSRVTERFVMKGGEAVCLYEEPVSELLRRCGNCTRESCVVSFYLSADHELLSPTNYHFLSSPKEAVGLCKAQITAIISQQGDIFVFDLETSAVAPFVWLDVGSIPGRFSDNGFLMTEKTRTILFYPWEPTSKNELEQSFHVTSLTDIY
UniProt P56192: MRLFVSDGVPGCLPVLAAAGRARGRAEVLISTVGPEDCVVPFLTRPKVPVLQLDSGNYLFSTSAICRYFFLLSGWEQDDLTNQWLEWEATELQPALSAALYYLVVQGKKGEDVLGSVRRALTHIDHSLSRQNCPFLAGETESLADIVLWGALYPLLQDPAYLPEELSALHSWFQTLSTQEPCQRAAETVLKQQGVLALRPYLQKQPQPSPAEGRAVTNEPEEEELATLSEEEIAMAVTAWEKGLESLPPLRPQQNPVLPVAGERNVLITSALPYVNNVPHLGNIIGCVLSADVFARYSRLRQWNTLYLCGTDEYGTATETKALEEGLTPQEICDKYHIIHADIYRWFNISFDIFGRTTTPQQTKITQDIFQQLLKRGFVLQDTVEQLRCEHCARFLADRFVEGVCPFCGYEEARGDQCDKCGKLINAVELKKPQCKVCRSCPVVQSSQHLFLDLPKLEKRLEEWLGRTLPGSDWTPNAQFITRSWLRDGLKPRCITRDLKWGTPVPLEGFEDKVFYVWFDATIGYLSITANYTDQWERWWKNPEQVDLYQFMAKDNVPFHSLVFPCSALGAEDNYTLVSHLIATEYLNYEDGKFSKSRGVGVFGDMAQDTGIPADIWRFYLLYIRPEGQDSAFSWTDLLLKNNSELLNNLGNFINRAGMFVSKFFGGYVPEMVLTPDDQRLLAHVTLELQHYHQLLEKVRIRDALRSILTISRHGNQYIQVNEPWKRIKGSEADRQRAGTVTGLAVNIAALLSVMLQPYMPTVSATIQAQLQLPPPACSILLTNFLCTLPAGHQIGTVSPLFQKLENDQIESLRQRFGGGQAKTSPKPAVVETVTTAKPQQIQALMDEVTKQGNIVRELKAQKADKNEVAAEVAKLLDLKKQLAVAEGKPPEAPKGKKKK
UniProt O95243: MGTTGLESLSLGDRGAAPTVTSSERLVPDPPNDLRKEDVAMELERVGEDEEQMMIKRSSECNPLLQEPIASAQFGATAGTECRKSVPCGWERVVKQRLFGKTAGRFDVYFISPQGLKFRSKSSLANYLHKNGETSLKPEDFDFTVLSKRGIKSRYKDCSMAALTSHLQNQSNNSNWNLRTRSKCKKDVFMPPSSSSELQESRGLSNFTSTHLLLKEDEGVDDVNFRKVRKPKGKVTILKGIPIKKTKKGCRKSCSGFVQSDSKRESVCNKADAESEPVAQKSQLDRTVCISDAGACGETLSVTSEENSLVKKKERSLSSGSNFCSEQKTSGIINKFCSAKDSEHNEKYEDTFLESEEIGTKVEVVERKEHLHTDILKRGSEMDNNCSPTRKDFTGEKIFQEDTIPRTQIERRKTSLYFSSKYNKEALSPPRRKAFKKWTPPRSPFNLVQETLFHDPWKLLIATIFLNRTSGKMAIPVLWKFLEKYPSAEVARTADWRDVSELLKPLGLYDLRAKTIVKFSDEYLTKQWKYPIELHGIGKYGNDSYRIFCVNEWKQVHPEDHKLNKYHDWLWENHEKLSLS
UniProt O95372: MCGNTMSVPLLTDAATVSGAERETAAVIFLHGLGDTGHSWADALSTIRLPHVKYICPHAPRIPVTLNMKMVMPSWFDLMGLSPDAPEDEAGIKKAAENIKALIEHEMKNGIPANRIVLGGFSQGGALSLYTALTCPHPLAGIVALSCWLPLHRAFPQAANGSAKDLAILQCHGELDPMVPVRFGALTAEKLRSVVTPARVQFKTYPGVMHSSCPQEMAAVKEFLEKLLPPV

Compound: Cc1cc(ccc1-c1ccccc1)C(=O)N1CCCN(CC1)C(=O)CCl [compound 10]
Assay: probe-labelled cysteine peptide fold change vs DMSO (competition) (log2 fold change); higher = less target engagement (more negative = stronger competition)
Details: THP-1, incubation time: 4 h
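Further: competitive profiling in live THP-1 cells: cysteine peptides tagged with an iodoacetamide desthiobiotin (IA-DTB) probe, intensity after compound treatment relative to DMSO-treated cells.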

Target	probe-labelled cysteine peptide fold change (10 µM)	probe-labelled cysteine peptide fold change (50 µM)
MAP4K3_Q8IVH8_509_DGSLCQQQNEHR (UniProt Q8IVH8)	-0.137	-0.716
M6PR_P20645_132_GGDEYDNHCGK (UniProt P20645)	-0.358	-0.136
MAST3_O60307_285_LLECLEFDPEEFYHLLEAAEGHAR (UniProt O60307)	-0.393	-0.385
MAP3K5_Q99683_391_ALDIMIPMVQSEGQVASDMYCLVGR (UniProt Q99683)	0.187	0.0264
MACF1_Q9UPN3_1522_AYHDLCDGSANQLQQLQSQLAHQTEQK (UniProt Q9UPN3)	0.239	-0.0731
MAP4K2_Q12851_302_ASDPHLGTPSPEDCELETYDMFPDTIHSR (UniProt Q12851)	-0.182	0.108
MARCH3_Q86UD3_89_ICHEGSSQEDLLSPCECTGTLGTIHR (UniProt Q86UD3)	-0.0768	-0.221
LY75_O60449_1380_VIEEAVYFHQHSILACK (UniProt O60449)	0.36	0.343
MAPK3_P27361_144_SQQLSNDHICYFLYQILR (UniProt P27361)	-0.267	0.58
MAVS_Q7Z434_33_NFSNFCNVDVVEILPYLPCLTAR (UniProt Q7Z434)	0.17	0.185
MANBA_O00462_176_GECHVNFVR (UniProt O00462)	-0.13	0.0132
MACF1_Q9UPN3_986_SSAPGECHQIMK (UniProt Q9UPN3)	0.115	-0.0463
MAN1A1_P33908_579_WAWEAVEALENHCR (UniProt P33908)	-0.018	-0.0306
MBD2_Q9UBB5_359_NPAVWLNTSQPLCK (UniProt Q9UBB5)	0.077	-0.266
MAP3K3_Q99759_411_EVSALECEIQLLK (UniProt Q99759)	-0.0261	-0.158
MARS_P56192_405_FVEGVCPFCGYEEAR (UniProt P56192)	-0.0372	-0.26
MAT2B_Q9NZL9_93_FEQVNLLDSNAVHHIIHDFQPHVIVHCAAER (UniProt Q9NZL9)	-0.0429	-0.0239
LY75_O60449_782_GWHFYDDREFIYLRPFACDTK (UniProt O60449)	-0.0988	0.0485
MBD4_O95243_268_ESVCNK (UniProt O95243)	-0.393	-0.586
LYPLA2_O95372_56_YICPHAPR (UniProt O95372)	0.146	-0.11
MACF1_Q9UPN3_3527_GSNSEIDVDSLNLCLQQYEDLK (UniProt Q9UPN3)	0.128	-0.547
LYPLA2_O95372_213_TYPGVMHSSCPQEMAAVK (UniProt O95372)	0.0019	-0.274
LYPLA1_O75608_144_LAGVTALSCWLPLR (UniProt O75608)	0.21	0.0595
MAP3K20_Q9NYL2_242_SFAELLHQCWEADAK (UniProt Q9NYL2)	0.0722	0.234

Some of the entries so far, with bars between the fields:
Target | probe-labelled cysteine peptide fold change (10 µM) | probe-labelled cysteine peptide fold change (50 µM)
MARCH3_Q86UD3_89_ICHEGSSQEDLLSPCECTGTLGTIHR (UniProt Q86UD3) | -0.0768 | -0.221
LY75_O60449_1380_VIEEAVYFHQHSILACK (UniProt O60449) | 0.36 | 0.343
MAPK3_P27361_144_SQQLSNDHICYFLYQILR (UniProt P27361) | -0.267 | 0.58
MAVS_Q7Z434_33_NFSNFCNVDVVEILPYLPCLTAR (UniProt Q7Z434) | 0.17 | 0.185
MANBA_O00462_176_GECHVNFVR (UniProt O00462) | -0.13 | 0.0132
MACF1_Q9UPN3_986_SSAPGECHQIMK (UniProt Q9UPN3) | 0.115 | -0.0463
